# Assay results published in publication PMC4734764.
# Protein sequences, listed by entry. Tags and fused reporters are not part of them.
# UniProt Q9UKV8: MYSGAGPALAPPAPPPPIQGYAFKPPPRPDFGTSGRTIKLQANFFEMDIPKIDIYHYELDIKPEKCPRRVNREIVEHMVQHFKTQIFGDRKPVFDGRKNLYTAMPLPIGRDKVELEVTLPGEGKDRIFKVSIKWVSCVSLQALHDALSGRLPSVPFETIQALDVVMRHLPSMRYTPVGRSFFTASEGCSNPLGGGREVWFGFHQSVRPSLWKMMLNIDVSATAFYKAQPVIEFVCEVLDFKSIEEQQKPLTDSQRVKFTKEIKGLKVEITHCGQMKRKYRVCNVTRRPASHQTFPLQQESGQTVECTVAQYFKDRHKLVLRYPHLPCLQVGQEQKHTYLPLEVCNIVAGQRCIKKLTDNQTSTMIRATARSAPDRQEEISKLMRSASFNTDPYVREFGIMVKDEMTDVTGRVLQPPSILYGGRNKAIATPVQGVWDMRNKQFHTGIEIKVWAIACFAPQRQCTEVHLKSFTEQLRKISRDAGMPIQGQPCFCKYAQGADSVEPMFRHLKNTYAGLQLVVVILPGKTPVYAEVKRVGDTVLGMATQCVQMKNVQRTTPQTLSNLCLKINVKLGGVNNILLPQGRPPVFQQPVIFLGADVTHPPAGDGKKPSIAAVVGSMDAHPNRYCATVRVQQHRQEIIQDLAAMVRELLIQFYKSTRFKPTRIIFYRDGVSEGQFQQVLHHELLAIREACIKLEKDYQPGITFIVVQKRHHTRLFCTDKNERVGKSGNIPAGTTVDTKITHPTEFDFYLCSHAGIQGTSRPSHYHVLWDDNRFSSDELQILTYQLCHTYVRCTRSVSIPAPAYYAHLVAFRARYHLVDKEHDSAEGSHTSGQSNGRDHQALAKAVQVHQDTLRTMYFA
# UniProt Q91572: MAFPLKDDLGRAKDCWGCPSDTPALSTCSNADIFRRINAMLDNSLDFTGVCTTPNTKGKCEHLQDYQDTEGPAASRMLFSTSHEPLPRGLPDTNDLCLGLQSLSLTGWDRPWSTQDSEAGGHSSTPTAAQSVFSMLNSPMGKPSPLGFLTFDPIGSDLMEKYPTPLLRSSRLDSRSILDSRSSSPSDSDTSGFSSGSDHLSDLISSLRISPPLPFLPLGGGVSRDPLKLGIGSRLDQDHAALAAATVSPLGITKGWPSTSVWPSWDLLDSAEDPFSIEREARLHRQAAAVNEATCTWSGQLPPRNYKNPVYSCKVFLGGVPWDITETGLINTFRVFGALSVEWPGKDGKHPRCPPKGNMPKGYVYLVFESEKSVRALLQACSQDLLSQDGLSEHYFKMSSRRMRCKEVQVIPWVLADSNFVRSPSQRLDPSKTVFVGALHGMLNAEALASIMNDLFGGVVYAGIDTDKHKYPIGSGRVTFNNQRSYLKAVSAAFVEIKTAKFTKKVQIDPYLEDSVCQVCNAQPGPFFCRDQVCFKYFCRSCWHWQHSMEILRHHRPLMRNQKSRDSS
# Results are given in words; binding and its absence hold for the method and conditions named. In cells and extracts the contact can be indirect. Some binding calls cover weakened binding; strength is not graded here.
# Key:
# [1] = target: human Ago2 (FLAG/HA-tagged) (human) (UniProt Q9UKV8); assay: co-IP; FLAG-M2 magnetic beads; lysate of oocytes injected with hAgo2-FLAG mRNA, lysed in NET buffer with 20 pg/μl RNAse A; 2 h 30 min at 4°C; blot with anti-FLAG and anti-CPEB1
# [2] = target: HA-tagged Xenopus tropicalis Ago2 (Xenopus tropicalis) (UniProt Q6DJB9); assay: co-IP; anti-HA-biotin antibodies on streptavidin Dynabeads; lysate of oocytes injected with xtAgo2-HA mRNA (with or without progesterone); 150 mM NaCl, 25 mM Tris-HCl pH 7.4, 5 mM EDTA, 0.5% NP40, 5 mM DTT; 2 h at 4°C; blot with anti-HA and anti-CPEB1
substance,measurement,setting,value
CPE-binding protein (CPEB) (from UniProt Q91572 1-568),binding,[1],binds
same,binding,[2],binds
